# This is one part of the list.
# B1: Epa19 (Candida glabrata) (protein)
# chain: MGSSHHHHHHSSGLVPRGSHMASSKDPTRFPIGCSPQVLKTQPGLAVKLYSYGHPVPGCSYITYQYPDFPRSGYKKERKLADITGVNGKIDIDLKPNDPCRVLTGHLPSNYNYPDTLTYTNFTMILYGYFQPKVTGYHTFNLEADDLLFMNLGAGNAFDCCKAESTLDNFGNYQSYSLWGSDYAKANITVFLVSGVYYPIRLFYVNRDNNAVIDFSFTTEFDKEKVHDFTSYFFSASDGEQCPGSV
# Tests used:
# Test in all cases: glycan array binding signal (z-score within array); higher = stronger binding
# Details in all cases: glycan notation: IUPAC condensed, linker removed
# Neu5Ac(a2-6)Gal = biological target: Neu5Ac(a2-6)Gal
# How it was run: (§1)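 Columns mapping to the same glycan were averaged after glycan names were converted to IUPAC-condensed notation. The data come from 3228 arrays in the Consortium for Functional Glycomics database, limited to those with an available protein sequence. Binding is reported as a within-array Z-score averaged across arrays of one protein sequence and across linkers.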
# [1] = biological target: Neu5Ac(a2-6)Gal(b1-3)GlcNAc(b1-3)[Gal(b1-4)GlcNAc(b1-6)]Gal(b1-4)Glc
# How it was run: as §1
# Neu5Ac(a2-6)Gal(b1-4)Glc = biological target: Neu5Ac(a2-6)Gal(b1-4)Glc
# How it was run: as §1
# [2] = biological target: Neu5Ac(a2-6)Gal(b1-4)GlcNAc
# How it was run: as §1
# [3] = biological target: Neu5Ac(a2-6)Gal(b1-4)GlcNAc(b1-2)Man
# How it was run: as §1
# [4] = biological target: Neu5Ac(a2-6)Gal(b1-4)GlcNAc(b1-2)Man(a1-3)Man(b1-4)GlcNAc(b1-4)GlcNAc
# How it was run: as §1
# [5] = biological target: Neu5Ac(a2-6)Gal(b1-4)GlcNAc(b1-2)Man(a1-3)[Gal(b1-4)GlcNAc(b1-2)Man(a1-6)]Man(b1-4)GlcNAc(b1-4)GlcNAc
# How it was run: as §1
# [6] = biological target: Neu5Ac(a2-6)Gal(b1-4)GlcNAc(b1-2)Man(a1-3)[GlcNAc(b1-2)Man(a1-6)]Man(b1-4)GlcNAc(b1-4)GlcNAc
# How it was run: as §1
# [7] = biological target: Neu5Ac(a2-6)Gal(b1-4)GlcNAc(b1-2)Man(a1-3)[GlcNAc(b1-4)][Neu5Ac(a2-6)Gal(b1-4)GlcNAc(b1-2)Man(a1-6)]Man(b1-4)GlcNAc(b1-4)GlcNAc
# How it was run: as §1
# [8] = biological target: Neu5Ac(a2-6)Gal(b1-4)GlcNAc(b1-2)Man(a1-3)[Man(a1-6)]Man(b1-4)GlcNAc(b1-4)GlcNAc
# How it was run: as §1
# [9] = biological target: Neu5Ac(a2-6)Gal(b1-4)GlcNAc(b1-2)Man(a1-3)[Neu5Ac(a2-3)Gal(b1-4)GlcNAc(b1-2)Man(a1-6)]Man(b1-4)GlcNAc(b1-4)GlcNAc
# How it was run: as §1
# [10] = biological target: Neu5Ac(a2-6)Gal(b1-4)GlcNAc(b1-2)Man(a1-3)[Neu5Ac(a2-6)Gal(b1-4)GlcNAc(b1-2)Man(a1-6)]Man(b1-4)GlcNAc(b1-4)GlcNAc
# How it was run: as §1
# [11] = biological target: Neu5Ac(a2-6)Gal(b1-4)GlcNAc(b1-2)Man(a1-3)[Neu5Ac(a2-6)Gal(b1-4)GlcNAc(b1-2)Man(a1-6)]Man(b1-4)GlcNAc(b1-4)[Fuc(a1-6)]GlcNAc
# How it was run: as §1
# [12] = biological target: Neu5Ac(a2-6)Gal(b1-4)GlcNAc(b1-2)Man(a1-6)Man(b1-4)GlcNAc(b1-4)GlcNAc
# How it was run: as §1
# [13] = biological target: Neu5Ac(a2-6)Gal(b1-4)GlcNAc(b1-2)Man(a1-6)[Gal(b1-4)GlcNAc(b1-2)Man(a1-3)]Man(b1-4)GlcNAc(b1-4)GlcNAc
# How it was run: as §1
# [14] = biological target: Neu5Ac(a2-6)Gal(b1-4)GlcNAc(b1-2)Man(a1-6)[GlcNAc(b1-2)Man(a1-3)]Man(b1-4)GlcNAc(b1-4)GlcNAc
# How it was run: as §1
# [15] = biological target: Neu5Ac(a2-6)Gal(b1-4)GlcNAc(b1-2)Man(a1-6)[Man(a1-3)]Man(b1-4)GlcNAc(b1-4)GlcNAc
# How it was run: as §1
# [16] = biological target: Neu5Ac(a2-6)Gal(b1-4)GlcNAc(b1-2)[Neu5Ac(a2-6)Gal(b1-4)GlcNAc(b1-4)]Man(a1-3)[GlcNAc(b1-4)][Neu5Ac(a2-6)Gal(b1-4)GlcNAc(b1-2)[Neu5Ac(a2-6)Gal(b1-4)GlcNAc(b1-6)]Man(a1-6)]Man(b1-4)GlcNAc(b1-4)GlcNAc
# How it was run: as §1
# [17] = biological target: Neu5Ac(a2-6)Gal(b1-4)GlcNAc(b1-2)[Neu5Ac(a2-6)Gal(b1-4)GlcNAc(b1-4)]Man(a1-3)[GlcNAc(b1-4)][Neu5Ac(a2-6)Gal(b1-4)GlcNAc(b1-4)Man(a1-6)]Man(b1-4)GlcNAc(b1-4)GlcNAc
# How it was run: as §1
# [18] = biological target: Neu5Ac(a2-6)Gal(b1-4)GlcNAc(b1-2)[Neu5Ac(a2-6)Gal(b1-4)GlcNAc(b1-6)]Man(a1-6)[Neu5Ac(a2-6)Gal(b1-4)GlcNAc(b1-2)Man(a1-3)][GlcNAc(b1-4)]Man(b1-4)GlcNAc(b1-4)GlcNAc
# How it was run: as §1
# [19] = biological target: Neu5Ac(a2-6)Gal(b1-4)GlcNAc(b1-3)Gal(b1-3)GlcNAc
# How it was run: as §1
# [20] = biological target: Neu5Ac(a2-6)Gal(b1-4)GlcNAc(b1-3)Gal(b1-4)GlcNAc
# How it was run: as §1
# [21] = biological target: Neu5Ac(a2-6)Gal(b1-4)GlcNAc(b1-3)Gal(b1-4)GlcNAc(b1-2)Man(a1-3)[Neu5Ac(a2-6)Gal(b1-4)GlcNAc(b1-3)Gal(b1-4)GlcNAc(b1-2)Man(a1-6)]GalNAc
# How it was run: as §1
# [22] = biological target: Neu5Ac(a2-6)Gal(b1-4)GlcNAc(b1-3)Gal(b1-4)GlcNAc(b1-3)Gal(b1-4)GlcNAc
# How it was run: as §1
# [23] = biological target: Neu5Ac(a2-6)Gal(b1-4)GlcNAc(b1-3)Gal(b1-4)GlcNAc(b1-3)Gal(b1-4)GlcNAc(b1-2)Man(a1-3)[Neu5Ac(a2-6)Gal(b1-4)GlcNAc(b1-3)Gal(b1-4)GlcNAc(b1-3)Gal(b1-4)GlcNAc(b1-2)Man(a1-6)]GalNAc
# How it was run: as §1
# [24] = biological target: Neu5Ac(a2-6)Gal(b1-4)GlcNAc(b1-3)Gal(b1-4)GlcNAc(b1-3)GalNAc
# How it was run: as §1
# [25] = biological target: Neu5Ac(a2-6)Gal(b1-4)GlcNAc(b1-3)Gal(b1-4)GlcNAc(b1-3)[Neu5Ac(a2-6)Gal(b1-4)GlcNAc(b1-3)Gal(b1-4)GlcNAc(b1-6)]GalNAc
# How it was run: as §1
# [26] = biological target: Neu5Ac(a2-6)Gal(b1-4)GlcNAc(b1-3)Gal(b1-4)GlcNAc(b1-6)[Gal(b1-3)]GalNAc
# How it was run: as §1
# [27] = biological target: Neu5Ac(a2-6)Gal(b1-4)GlcNAc(b1-3)Gal(b1-4)[Fuc(a1-3)]GlcNAc(b1-3)Gal(b1-4)[Fuc(a1-3)]GlcNAc
# How it was run: as §1
# [28] = biological target: Neu5Ac(a2-6)Gal(b1-4)GlcNAc(b1-3)GalNAc
# How it was run: as §1
# [29] = biological target: Neu5Ac(a2-6)Gal(b1-4)GlcNAc(b1-3)[Neu5Ac(a2-6)Gal(b1-4)GlcNAc(b1-6)]GalNAc
# How it was run: as §1
# [30] = biological target: Neu5Ac(a2-6)Gal(b1-4)GlcNAc(b1-6)GalNAc
# How it was run: as §1
# [31] = biological target: Neu5Ac(a2-6)Gal(b1-4)GlcNAc(b1-6)[Gal(b1-3)GlcNAc(b1-3)]Gal(b1-4)Glc
# How it was run: as §1
# [32] = biological target: Neu5Ac(a2-6)Gal(b1-4)GlcNAc(b1-6)[Gal(b1-3)]GalNAc
# How it was run: as §1
# [33] = biological target: Neu5Ac(a2-6)Gal(b1-4)GlcNAc6S
# How it was run: as §1
# Neu5Ac(a2-6)GalNAc = biological target: Neu5Ac(a2-6)GalNAc
# How it was run: as §1
# [34] = biological target: Neu5Ac(a2-6)GalNAc(b1-4)GlcNAc
# How it was run: as §1
# [35] = biological target: Neu5Ac(a2-6)GalNAc(b1-4)GlcNAc6S
# How it was run: as §1
binder,measurement,setting,value
B1,glycan array binding signal (z-score),Neu5Ac(a2-6)Gal,-0.185
same,glycan array binding signal (z-score),[1],-0.876
same,glycan array binding signal (z-score),Neu5Ac(a2-6)Gal(b1-4)Glc,-0.768
same,glycan array binding signal (z-score),[2],-0.869
same,glycan array binding signal (z-score),[3],1.19
same,glycan array binding signal (z-score),[4],0.137
same,glycan array binding signal (z-score),[5],-0.545
same,glycan array binding signal (z-score),[6],-0.28
same,glycan array binding signal (z-score),[7],-0.825
same,glycan array binding signal (z-score),[8],-0.441
same,glycan array binding signal (z-score),[9],-0.068
same,glycan array binding signal (z-score),[10],-0.211
same,glycan array binding signal (z-score),[11],-0.142
same,glycan array binding signal (z-score),[12],0.781
same,glycan array binding signal (z-score),[13],-1.28
same,glycan array binding signal (z-score),[14],-0.007
same,glycan array binding signal (z-score),[15],0.827
same,glycan array binding signal (z-score),[16],-0.801
same,glycan array binding signal (z-score),[17],-0.148
same,glycan array binding signal (z-score),[18],-1.09
same,glycan array binding signal (z-score),[19],-0.227
same,glycan array binding signal (z-score),[20],-1.3
same,glycan array binding signal (z-score),[21],1.24
same,glycan array binding signal (z-score),[22],0.355
same,glycan array binding signal (z-score),[23],3.53
same,glycan array binding signal (z-score),[24],-0.618
same,glycan array binding signal (z-score),[25],0.576
same,glycan array binding signal (z-score),[26],-0.419
same,glycan array binding signal (z-score),[27],0.107
same,glycan array binding signal (z-score),[28],-0.192
same,glycan array binding signal (z-score),[29],-0.421
same,glycan array binding signal (z-score),[30],0.76
same,glycan array binding signal (z-score),[31],-0.431
same,glycan array binding signal (z-score),[32],-0.036
same,glycan array binding signal (z-score),[33],-0.198
same,glycan array binding signal (z-score),Neu5Ac(a2-6)GalNAc,-0.465
same,glycan array binding signal (z-score),[34],-0.683
same,glycan array binding signal (z-score),[35],0.451

# A second format for some results above:
binder	measurement	setting	value
B1	glycan array binding signal (z-score)	[6]	-0.28
same	glycan array binding signal (z-score)	[15]	0.827
